The source of these data is the supplement of paper PMC4604168 (melanoma cell lines).

The list shows a part of the results. Single values are uncertain, as repeats are few or missing.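 The apoptosis fraction was the count of cleaved-PARP antibody-stained nuclei relative to all DNA-stained nuclei, imaged in 1,536-well plates. Screening doses were set so most cells survived, and baseline and induced cleaved-PARP levels vary greatly across cell lines.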

This assay relates to SkMel30. Briefly: cleaved PARP positive nuclei fraction relative to DMSO control; melanoma cells; higher = more apoptosis. Particulars: library dose: low library concentration; 72 h.
For the molecule `C=C(c1ccc(C(=O)O)cc1)c1cc2c(cc1C)C(C)(C)CCC2(C)C` [Bexarotene] + CC(C)(C)c1cnc(CSc2cnc(NC(=O)C3CCNCC3)s2)o1 [SNS-032] (first compound 2 µM, partner dose 0.01 µM), the “cleaved PARP positive nuclei fraction” value is 67.9%.
`Cc1cc(Nc2cc(N3CCN(C)CC3)nc(/C=C/c3ccccc3)n2)n[nH]1` + COc1cc(N2CCC(N3CCN(C)CC3)CC2)ccc1Nc1ncc(Cl)c(Nc2ccccc2S(=O)(=O)C(C)C)n1 [NVP-TAE684] (first compound 0.04 µM, partner dose 0.08 µM): the “cleaved PARP positive nuclei fraction” value is 87.8%.
`O=C(O)c1ccc2c(c1)nc(Nc1cccc(Cl)c1)c1ccncc12` + Oc1nc(-c2ccc(C(F)(F)F)cc2)nc2c1CSCC2 [XAV939] (first compound 0.4 µM, partner dose 2 µM): the “cleaved PARP positive nuclei fraction” value worked out at 702%.
With `Nc1ccn([C@@H]2O[C@H](CO)[C@@H](O)C2(F)F)c(=O)n1` [gemcitabine] + COC(=O)c1sccc1S(=O)(=O)Nc1ccc(Nc2ccccc2)cc1OC [GSK0660] (first compound 0.0004 µM, partner dose 1 µM), the “cleaved PARP positive nuclei fraction” value was 44.6%.
To `CNC(=O)c1cc(Oc2ccc(NC(=O)Nc3ccc(Cl)c(C(F)(F)F)c3)cc2)ccn1` [sorafenib] + CC(C)(C)c1cnc(CSc2cnc(NC(=O)C3CCNCC3)s2)o1 [SNS-032] (first compound 0.4 µM, partner dose 0.01 µM) belongs 130%; to `Nc1ccn([C@@H]2O[C@H](CO)[C@@H](O)C2(F)F)c(=O)n1` [gemcitabine] + OCCn1cc(-c2cnc3nnn(Cc4ccc5ncccc5c4)c3n2)cn1 [PF04217903] (first compound 0.0004 µM, partner dose 1 µM), 66.7%.
As to `C=C(c1ccc(C(=O)O)cc1)c1cc2c(cc1C)C(C)(C)CCC2(C)C` [Bexarotene] + Cc1ccc(NC(=O)c2cccc(N(C)C)c2)cc1NC(=O)c1ccc(O)cc1 [ZM336372] (first compound 2 µM, partner dose 2 µM), the “cleaved PARP positive nuclei fraction” value is 73.3%.
With `Nc1nc(F)nc2c1ncn2[C@@H]1O[C@H](CO)[C@@H](O)[C@@H]1O` [fludarabine] + C=CCn1c(=O)c2cnc(Nc3ccc(N4CCN(C)CC4)cc3)nc2n1-c1cccc(C(C)(C)O)n1 [MK1775] (first compound 0.2 µM, partner dose 0.02 µM), the “cleaved PARP positive nuclei fraction” value amounted to 828%.
For the molecule `Cc1cc(Nc2cc(N3CCN(C)CC3)nc(/C=C/c3ccccc3)n2)n[nH]1` + Cn1cc(/C=C2\C(=O)Nc3cccnc32)c2ccccc21 [GW441756] (first compound 0.04 µM, partner dose 0.4 µM), the “cleaved PARP positive nuclei fraction” value was found to be 72.8%.
Take `CC(C)C[C@H](NC(=O)[C@H](Cc1ccccc1)NC(=O)c1cnccn1)B(O)O` [Bortezomib] + c1cc(-c2cnn3cc(-c4ccc(OCCN5CCCCC5)cc4)cnc23)ccn1 [Dorsomorphin] (first compound 0.001 µM, partner dose 0.4 µM): the “cleaved PARP positive nuclei fraction” value is 422%.
To `Nc1ncn([C@H]2C[C@H](O)[C@@H](CO)O2)c(=O)n1` [decitabine] + Cc1cc([N+](=O)[O-])ccc1NS(=O)(=O)c1cc(Cl)ccc1Cl [FH535] (first compound 0.1 µM, partner dose 1 µM) belongs 137%.
In the case of `Nc1ncn([C@H]2C[C@H](O)[C@@H](CO)O2)c(=O)n1` [decitabine] + O=C(Nc1cccc(Cl)c1)Nc1ncc(CCNc2ncnc3ccsc23)s1 [SNS314] (first compound 0.1 µM, partner dose 0.0008 µM) it was 68.5%; in that of `CS(=O)(=O)CCNCc1ccc(-c2ccc3ncnc(Nc4ccc(OCc5cccc(F)c5)c(Cl)c4)c3c2)o1` [lapatinib] + COc1ccc2c(c1)CCC1C2CCC2(C)C(NCCCCCCN3C(=O)C=CC3=O)CCC12 [U73122] (first compound 0.8 µM, partner dose 0.4 µM), 61.4%; in that of `Cc1cc(Nc2cc(N3CCN(C)CC3)nc(/C=C/c3ccccc3)n2)n[nH]1` + CCCCCCCCCCCC1=C(O)C(=O)C=C(O)C1=O [Embelin] (first compound 0.04 µM, partner dose 1.2 µM), 38.9%.
`C[C@@H](Oc1cc(-c2cnn(C3CCNCC3)c2)cnc1N)c1c(Cl)ccc(F)c1Cl` [Crizotinib] + Cc1cc([N+](=O)[O-])ccc1NS(=O)(=O)c1cc(Cl)ccc1Cl [FH535] (first compound 0.2 µM, partner dose 1 µM): the “cleaved PARP positive nuclei fraction” value amounted to 83.6%.
`Nc1ccn([C@@H]2O[C@H](CO)[C@@H](O)C2(F)F)c(=O)n1` [gemcitabine] + O=C(Nc1cccc(Cl)c1)Nc1ncc(CCNc2ncnc3ccsc23)s1 [SNS314] (first compound 0.0004 µM, partner dose 0.0008 µM): the “cleaved PARP positive nuclei fraction” value stood at 58.1%.
Consider `O=C(O)[C@@H]1[O][Sb](=[O])([O][Sb]2(=[O])[O][C@H]([C@H](O)CO)[C@H](O)[C@H](C(=O)O)[O]2)[O][C@H]([C@H](O)CO)[C@@H]1O` (stereo partly specified) [stibogluconate] + CC(C)CCN1c2nc(Nc3cc(F)c(O)c(F)c3)ncc2N(C)C(=O)C1C [BID1870] (first compound 2 µM, partner dose 0.2 µM), for which the “cleaved PARP positive nuclei fraction” value stood at 65.4%.
To `C=C(c1ccc(C(=O)O)cc1)c1cc2c(cc1C)C(C)(C)CCC2(C)C` [Bexarotene] + COc1ccc2c(c1)CCC1C2CCC2(C)C(NCCCCCCN3C(=O)C=CC3=O)CCC12 [U73122] (first compound 2 µM, partner dose 0.4 µM) belongs 75.2%; to `C=C(c1ccc(C(=O)O)cc1)c1cc2c(cc1C)C(C)(C)CCC2(C)C` [Bexarotene] + Oc1nc(-c2ccc(C(F)(F)F)cc2)nc2c1CSCC2 [XAV939] (first compound 2 µM, partner dose 2 µM), 38.7%.
Regarding `CS(=O)(=O)CCNCc1ccc(-c2ccc3ncnc(Nc4ccc(OCc5cccc(F)c5)c(Cl)c4)c3c2)o1` [lapatinib] + NC(=O)Nc1cc(-c2cccc(F)c2)sc1C(=O)N[C@H]1CCCNC1 [AZD7762] (first compound 0.8 µM, partner dose 0.02 µM), the “cleaved PARP positive nuclei fraction” value was found to be 160%.
On to `O=C(O)[C@@H]1[O][Sb](=[O])([O][Sb]2(=[O])[O][C@H]([C@H](O)CO)[C@H](O)[C@H](C(=O)O)[O]2)[O][C@H]([C@H](O)CO)[C@@H]1O` (stereo partly specified) [stibogluconate] + CN(NC(=O)CC(=O)NN(C)C(=S)c1ccccc1)C(=S)c1ccccc1 [STA4783] (first compound 2 µM, partner dose 0.006 µM), for which the “cleaved PARP positive nuclei fraction” value is 130%.
For `CCCS(=O)(=O)Nc1ccc(F)c(C(=O)c2c[nH]c3ncc(Cl)cc23)c1F` + COc1ccc(COc2ccc(Cc3cnc(N)nc3N)cc2OC)cc1 [GW2580] (first compound 0.08 µM, partner dose 1 µM), the “cleaved PARP positive nuclei fraction” value amounted to 169%.
Consider `Nc1ncn([C@H]2C[C@H](O)[C@@H](CO)O2)c(=O)n1` [decitabine] + CCc1ccc(CCOc2ccc(CC3SC(=O)NC3=O)cc2)nc1 [pioglitazone] (first compound 0.1 µM, partner dose 2 µM), for which the “cleaved PARP positive nuclei fraction” value turned out to be 44.5%.
As to `CN1CCN(c2ccc3nc(-c4c(N)c5c(F)cccc5[nH]c4=O)[nH]c3c2)CC1` [Dovitinib] + CN(NC(=O)CC(=O)NN(C)C(=S)c1ccccc1)C(=S)c1ccccc1 [STA4783] (first compound 0.1 µM, partner dose 0.006 µM), the “cleaved PARP positive nuclei fraction” value was found to be 96.7%.
On to `Nc1ccn([C@@H]2O[C@H](CO)[C@@H](O)C2(F)F)c(=O)n1` [gemcitabine] + O=c1cc(-c2cccc3c2Sc2ccccc2S3)oc(N2CCOCC2)c1 [KU55933] (first compound 0.0004 µM, partner dose 1 µM), for which the “cleaved PARP positive nuclei fraction” value was found to be 168%.
Regarding `CCCS(=O)(=O)Nc1ccc(F)c(C(=O)c2c[nH]c3ncc(Cl)cc23)c1F` + COc1cc(Nc2ncc(F)c(Nc3ccc4c(n3)NC(=O)C(C)(C)O4)n2)cc(OC)c1OC [Tamatinib] (first compound 0.08 µM, partner dose 0.4 µM), the “cleaved PARP positive nuclei fraction” value was 178%.
Turning to `Cn1c(=O)n(-c2ccc(C(C)(C)C#N)cc2)c2c3cc(-c4cnc5ccccc5c4)ccc3ncc21` + Oc1cc(-c2nc(-c3ccccc3)[nH]c2-c2ccncc2)ccc1Cl [L779450] (first compound 0.004 µM, partner dose 0.2 µM), the “cleaved PARP positive nuclei fraction” value amounted to 56.1%.
`CN1CCN(c2ccc3nc(-c4c(N)c5c(F)cccc5[nH]c4=O)[nH]c3c2)CC1` [Dovitinib] + COc1ccc(COc2ccc(Cc3cnc(N)nc3N)cc2OC)cc1 [GW2580] (first compound 0.1 µM, partner dose 1 µM): the “cleaved PARP positive nuclei fraction” value stood at 85.5%.
On to `C=C(c1ccc(C(=O)O)cc1)c1cc2c(cc1C)C(C)(C)CCC2(C)C` [Bexarotene] + CCc1ccc(CCOc2ccc(CC3SC(=O)NC3=O)cc2)nc1 [pioglitazone] (first compound 2 µM, partner dose 2 µM), for which the “cleaved PARP positive nuclei fraction” value was 40.5%.
Regarding `Cc1cc(Nc2cc(N3CCN(C)CC3)nc(/C=C/c3ccccc3)n2)n[nH]1` + CC(C)CCN1c2nc(Nc3cc(F)c(O)c(F)c3)ncc2N(C)C(=O)C1C [BID1870] (first compound 0.04 µM, partner dose 0.2 µM), the “cleaved PARP positive nuclei fraction” value is 303%.
To `CN1CCN(c2ccc3nc(-c4c(N)c5c(F)cccc5[nH]c4=O)[nH]c3c2)CC1` [Dovitinib] + CN(C)S(=O)(=O)c1ccc2c(c1)/C(=C/c1cc3c([nH]1)CCCC3)C(=O)N2 [SU6656] (first compound 0.1 µM, partner dose 0.4 µM) belongs 130%.
